Source: PubChem BioAssay AID504804 (Drosophila RNAi Screening Center, 2011)
Purpose: 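Knock-downs shielding fly cells from apoptosis caused by DNA damage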 (primary screen). Cells: Drosophila Kc cells. Knock-down reagent: long dsRNA against Drosophila genes, 0.5 µg dsRNA per well. Timing: 96 h (48 h knock-down, then 48 h drug). Treatment: doxorubicin 5 µg/ml for 48 h, added 48 h after dsRNA. Measured: 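Luminescent ATP counts per replicate, not normalised, reflecting viable cells after 48 h dsRNA knock-down followed by 48 h of 5 µg/ml doxorubicin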. Direction: raw ATP luminescence: higher = more viable cells, protection from doxorubicin. Rule for the call: 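z-score of 2 or more over plate mean in both duplicates, retained only when retests and separate dsRNAs confirm the protection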.
In all, the deposit lists about 19,000 reagents; shown is an unselected part of those with a known target gene and a result. Of all reagents, 47 (0.25%) are marked active. 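Signals are raw, not normalised; exact z-scores behind calls not deposited; actives needed confirmation, so some wells reaching 2 SD are inactive.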 Unmarked entries are inactive. Reagents against one gene are numbered here.

BomBc3 (Bomanin Bicipital 3) gave raw ATP luminescence, replicate 1 = 63510; raw ATP luminescence, replicate 2 = 83600.
After knock-down of CG7309, the screen gave raw ATP luminescence, replicate 1 = 53333; raw ATP luminescence, replicate 2 = 75727.
Taf8 (TBP-associated factor 8) gave raw ATP luminescence, replicate 1 = 3.15e5; raw ATP luminescence, replicate 2 = 3.15e5.
tipE (temperature-induced paralytic E) gave raw ATP luminescence, replicate 1 = 33970; raw ATP luminescence, replicate 2 = 34577.
Pbp45 (PSEA-binding protein 45kD) scored raw ATP luminescence, replicate 1 = 69830; raw ATP luminescence, replicate 2 = 55540.
For CG14891 the deposit lists raw ATP luminescence, replicate 1 = 36683; raw ATP luminescence, replicate 2 = 40347.
Gug (Grunge) showed raw ATP luminescence, replicate 1 = 92523; raw ATP luminescence, replicate 2 = 92157.
Knock-down of CG2162 gave: raw ATP luminescence, replicate 1 = 46547; raw ATP luminescence, replicate 2 = 44897.
Against CG18508, the entry reads raw ATP luminescence, replicate 1 = 49300; raw ATP luminescence, replicate 2 = 56730.
Against VhaM9.7-d (Vacuolar H[+] ATPase M9.7 subunit d), the values are raw ATP luminescence, replicate 1 = 74090; raw ATP luminescence, replicate 2 = 60230.
After knock-down of CG4465, the record shows raw ATP luminescence, replicate 1 = 56160; raw ATP luminescence, replicate 2 = 72300.

Ordered by “raw ATP luminescence, replicate 1” (descending): 2 of the entries above.
Gug (Grunge) → raw ATP luminescence, replicate 1 = 92523; raw ATP luminescence, replicate 2 = 92157
CG2162 → raw ATP luminescence, replicate 1 = 46547; raw ATP luminescence, replicate 2 = 44897

Continued:
With knock-down of Mgat3, the screen gave raw ATP luminescence, replicate 1 = 2.72e5; raw ATP luminescence, replicate 2 = 2.30e5.
For Lpt (Lost PHDs of trr) #1, the entry reads SD above plate mean at least 3 SD above plate mean (active); raw ATP luminescence, replicate 1 = 66197; raw ATP luminescence, replicate 2 = 55600.
For Lpt (Lost PHDs of trr) #2, the values are raw ATP luminescence, replicate 1 = 57070; raw ATP luminescence, replicate 2 = 50817.
After knock-down of betaNACtes4 (Nascent-associated complex beta-subunit-like, testis 4) the results were raw ATP luminescence, replicate 1 = 4.05e5; raw ATP luminescence, replicate 2 = 3.69e5.
With knock-down of CG11598 the results were raw ATP luminescence, replicate 1 = 57817; raw ATP luminescence, replicate 2 = 58570.
For CG12419 (retired record), the entry reads raw ATP luminescence, replicate 1 = 41727; raw ATP luminescence, replicate 2 = 46727.
For Cyp12c1 (Cytochrome P450 12c1), the values are SD above plate mean 2 to 3 SD above plate mean; raw ATP luminescence, replicate 1 = 49720; raw ATP luminescence, replicate 2 = 43300.
Knock-down of Fer2LCH (Ferritin 2 light chain homologue) came out at: raw ATP luminescence, replicate 1 = 38660; raw ATP luminescence, replicate 2 = 36800.
Against CG6443, the values are raw ATP luminescence, replicate 1 = 53363; raw ATP luminescence, replicate 2 = 37820.
After knock-down of Sec23 (Secretory 23), the record shows SD above plate mean 2 to 3 SD above plate mean (active); raw ATP luminescence, replicate 1 = 1.08e5; raw ATP luminescence, replicate 2 = 49900.
With knock-down of CG42685 the results were raw ATP luminescence, replicate 1 = 77033; raw ATP luminescence, replicate 2 = 1.14e5.
Silencing of CheB42c (Chemosensory protein B 42c) gave: raw ATP luminescence, replicate 1 = 52070; raw ATP luminescence, replicate 2 = 73057.
For CG14969, the values are raw ATP luminescence, replicate 1 = 46860; raw ATP luminescence, replicate 2 = 34187.
Depletion of CG5079 gave: raw ATP luminescence, replicate 1 = 18880; raw ATP luminescence, replicate 2 = 19640.
Against MED6 (Mediator complex subunit 6), the values are raw ATP luminescence, replicate 1 = 55970; raw ATP luminescence, replicate 2 = 30560.
Silencing of Uba5 (Ubiquitin-like activating enzyme 5) came out at: raw ATP luminescence, replicate 1 = 3.63e5; raw ATP luminescence, replicate 2 = 3.33e5.
For cpb (capping protein beta), the entry reads raw ATP luminescence, replicate 1 = 87893; raw ATP luminescence, replicate 2 = 65447.
